# Experimental data as given in PubChem BioAssay AID504444 (National Center for Advancing Translational Sciences (NCATS), 2011).
# In all, about 360,000 compounds went through this assay and about 7,500 (2.1%) were called active. This list was built around the results that the source calls inconclusive (neither active nor inactive); the mix of calls is not that of the screen. Calls follow the shape of the dose curve; as a rule, active = well fitted inhibition curve with a large enough effect; inconclusive = small, poorly fitted or top-dose-only effect, or effect the other way; inactive = flat fitted curve, though single readings scatter. Where the call is inconclusive, the potency comes from a doubtful curve fit.
# Test: Nrf2 qHTS screen for inhibitors; also: nearly all actives have a fitted effect of over 60% in size
# Conditions: A549 ARE-Fluc reporter, luciferase luminescence, 18-24 h; activity change, negative = inhibition: at 46 µM (top of the series)
# How it was run: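 Two sequential reads on A549 ARE_Fluc cells exposed to compound for 18-24 h: a CellTiter-Fluor fluorescence read for viability, then a luciferase luminescence read for Nrf2/ARE activity.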
# % is scaled to controls: 0 for no effect and ±100 for the full control effect; potency is read from the fitted curve at half-maximal effect.
Compound,Potency,"activity change, negative = inhibition"
O=C(Nc1ccc2c(c1)CCC2)c1ccccc1,"inconclusive: 4.61 µM [activator, partial curve]",
Cn1c(=O)c2c(nc(SCCN3CCOCC3)n2Cc2ccc(F)cc2)n(C)c1=O,"inconclusive: 13 µM [activator, partial curve]",
O=C(CCc1ccccc1)NC(NC(=S)Nc1ccc(Br)cc1)C(Cl)(Cl)Cl (stereo unspecified),active: 9.2 µM,
COCCn1c(-c2ccc(-c3ccc([N+](=O)[O-])cc3Br)o2)nc2c1c(=O)[nH]c(=O)n2CC(C)C,"inconclusive: 25.9 µM [falling, partial curve, poor fit]",
CCOc1ccc(-c2cc(NC(=O)Nc3ccccc3Cl)c(C(=O)OC)s2)cc1,"inconclusive: 5.17 µM [activator, full curve]",
Cc1ccc(-c2nnc(Nc3ccc(F)cc3)c3ccccc23)cc1S(=O)(=O)NC(C)C,"inconclusive: 23.1 µM [falling, partial curve, poor fit]",
Cc1ccc(C)c(N2CCN(C(=O)CCc3c(C)nn(-c4ccc(N5CCCC5)nn4)c3C)CC2)c1,"inconclusive: 29.1 µM [falling, single point]",
Cc1c(P(=S)(c2ccccc2)c2ccccc2)c2ccccc2n1CCCc1ccccc1,,inactive: 4.54%
CCN(CC(=O)NC(C)C)C(=O)Cc1ccc(C)c(C)c1,"inconclusive: 14.6 µM [activator, partial curve, poor fit]",
O=c1c2ccccc2c(=O)n(Cc2ccccc2)n1Cc1ccccc1,"inconclusive: 18.4 µM [falling, partial curve, poor fit]",
COc1ccccc1CNC(=O)CSc1nc2nc(C)c(Cc3ccccc3C)c(C)n2n1,,inactive: 26.6% [at 9.27 µM]
COCCSc1nnc(NC(=O)C(C)(C)C)s1,"inconclusive: 3.16 µM [activator, full curve]",
CCOC(=O)c1c(C=O)c(C)n(Cc2ccccc2Cl)c1C,"inconclusive: 7.31 µM [falling, partial curve, poor fit]",
CCOC(=O)c1c(/N=C/N(C)C)sc(/C=N/Nc2ccccc2)c1-c1ccccc1Cl,"inconclusive: 25.9 µM [activator, single point]",
Cc1ccc(C2=NN(CC(=O)NCc3ccco3)C(=O)CC2)cc1,"inconclusive: 6.51 µM [activator, single point]",
Cc1c(Cl)c(=O)n2c(=O)c(Cl)c(C)n12,,inactive: -3.24%
CCOc1ccc(CNC(=O)Cn2nc(N3CCN(c4ccccc4)CC3)ccc2=O)cc1,"inconclusive: 16.4 µM [falling, single point]",
O=C(NC(=S)Nc1ccccc1)c1ccc(Br)o1,"inconclusive: 20.6 µM [activator, partial curve]",
CCCC[n+]1ccn(C2=C([O-])c3ccccc3C(=O)/C2=N\S(=O)(=O)c2ccccc2)c1,active: 20 µM,
O=[N+]([O-])c1ccc(Cl)c(S(=O)(=O)Nc2ccc3cn[nH]c3c2)c1,"inconclusive: 0.291 µM [falling, full curve]",
Cc1ccc2cc(/C=C/C(=O)c3ccco3)c(Cl)nc2c1,"inconclusive: 3.66 µM [activator, partial curve, poor fit]",

Compound,Potency,"activity change, negative = inhibition"
O=C(NCCCn1cccn1)c1cc(COc2ccc(F)cc2Cl)on1,"inconclusive: 3.26 µM [falling, partial curve, poor fit]",
CSc1cccc(NC(=O)COc2cccc3ccccc23)c1,"inconclusive: 29.1 µM [falling, single point]",
CCOC(=O)/C=C1/SCC(=O)N1CCOc1cccc(Br)c1,"inconclusive: 20.6 µM [falling, partial curve, poor fit]",
Cc1cc(C(=O)Nc2ccc3c(c2)OCO3)no1,"inconclusive: 1.46 µM [activator, full curve]",
COc1ccccc1C(=O)O/N=C(\N)c1ccccn1,"inconclusive: 16.4 µM [activator, partial curve]",
CC(C)(C)c1cc(CN(CCO)CCO)c(O)c(C(C)(C)C)c1,"inconclusive: 29.1 µM [falling, single point]",
Cc1nn(C)c2c1c(-c1ccccc1)cc(=O)n2Cc1ccc(Br)cc1F,"inconclusive: 29.1 µM [activator, single point]",
O=c1c2ccccc2oc2ccc(C#CC3(O)CCCCC3)cc12,"inconclusive: 2.59 µM [activator, partial curve]",
COc1ccc(Cc2nnc(SC)[nH]c2=O)cc1,"inconclusive: 5.17 µM [activator, single point]",
CCOC(=O)C1(CCc2ccccc2)CCN(C(=O)C2CCCO2)CC1 (stereo unspecified),"inconclusive: 29.1 µM [activator, partial curve, poor fit]",
C=CC[C@@H](CC(=O)N[C@H](CO)Cc1ccccc1)C(=O)N[C@H](COC(=O)[C@@H](CC=C)CC(=O)OC(C)(C)C)Cc1c[nH]c2ccccc12,active: 20.6 µM,
O=C(Nc1ccccc1F)c1cc(Cl)sc1Cl,"inconclusive: 25.9 µM [activator, single point]",
Cc1cccc2c1-c1sc(C(=O)Nc3ccccc3N3CCN(C)CC3)cc1CO2,,inactive: -11.4%
COc1ccc(C(C(=O)Nc2ccc3c(c2)OCO3)N(C)C(=O)Cc2c[nH]c3ccccc23)cc1 (stereo unspecified),"inconclusive: 5.17 µM [falling, partial curve, poor fit]",
CCOc1ccc(S(=O)(=O)N/N=C(\C)c2ccc(Cl)c(Cl)c2Cl)cc1,"inconclusive: 32.6 µM [falling, single point]",
CCOc1nc(N=C(N)N)nc2c(C)cccc12,,inactive: 33.1%
Cc1ccccc1-c1nc2sc(C)c(C)c2c(=O)o1,"inconclusive: 25.9 µM [activator, partial curve]",
CCCOc1ccc(-c2nc(SCc3ccccc3)[nH]c(=O)c2C#N)cc1OC,"inconclusive: 18.4 µM [falling, single point]",
FC(F)(F)c1ccc(NCCc2ccccc2)nc1,"inconclusive: 0.731 µM [falling, full curve, poor fit]",
O=C1Nc2cc(C(=O)NCCN3CCCCCC3)ccc2S/C1=C\c1ccccc1,,inactive: 13.4%

# 3 structures already listed, sorted by molecular weight, ascending:
Compound,Potency,"activity change, negative = inhibition"
CCOc1nc(N=C(N)N)nc2c(C)cccc12,,inactive: 33.1%
O=C(NCCCn1cccn1)c1cc(COc2ccc(F)cc2Cl)on1,"inconclusive: 3.26 µM [falling, partial curve, poor fit]",
CCCOc1ccc(-c2nc(SCc3ccccc3)[nH]c(=O)c2C#N)cc1OC,"inconclusive: 18.4 µM [falling, single point]",
